PubChem BioAssay AID1224830 – NIAID – 2016

- Test: 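Genes whose knock-down alters the TNF-alpha reporter response to LPS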 (primary screen)
- System: human THP-1 monocytic leukaemia cells, TNF dual-luciferase reporter clone, PMA-differentiated to macrophage-like cells
- Knock-down reagent: siRNA pool against human genes, 50 nM
- Duration: LPS for 4 h, given about 3 days after siRNA transfection
- Conditions: bacterial LPS (TLR4 ligand), 10 ng/ml
- Measurement: 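Ratio of firefly to renilla light, scaled to the plate median and expressed as a robust z-score per replicate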
- Direction: TNF reporter robust z-score: higher = stronger TNF reporter response to LPS
- Hit rule: 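Each well counts as active if its z-score is over 2.8 or under -1.5; controls are left without a call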
This is a random part of about 18,000 deposited reagents. About 2,900 of all reagents (16%) were called active. 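Calls are made per well; low scores hint the gene aids the LPS response, high scores that it dampens it.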 Repeated entries: four replicate wells of each siRNA pool.

| gene | TNF reporter robust z-score | Outcome |
| --- | --- | --- |
| VSTM4 (V-set and transmembrane domain containing 4) | 0.63 | inactive |
| VSTM4 (V-set and transmembrane domain containing 4) | 0.58 | inactive |
| VSTM4 (V-set and transmembrane domain containing 4) | 1.35 | inactive |
| VSTM4 (V-set and transmembrane domain containing 4) | 1.52 | inactive |
| SERTAD2 (SERTA domain containing 2) | -0.28 | inactive |
| SERTAD2 (SERTA domain containing 2) | -0.14 | inactive |
| SERTAD2 (SERTA domain containing 2) | -0.02 | inactive |
| SERTAD2 (SERTA domain containing 2) | 0.28 | inactive |
| HPCAL1 (hippocalcin like 1) | -1.45 | inactive |
| HPCAL1 (hippocalcin like 1) | -0.92 | inactive |
| HPCAL1 (hippocalcin like 1) | -0.37 | inactive |
| HPCAL1 (hippocalcin like 1) | 0.24 | inactive |
| DLGAP4 (DLG associated protein 4) | -1.47 | inactive |
| DLGAP4 (DLG associated protein 4) | -0.97 | inactive |
| DLGAP4 (DLG associated protein 4) | -1.34 | inactive |
| DLGAP4 (DLG associated protein 4) | -1.15 | inactive |
| KCNU1 (potassium calcium-activated channel subfamily U member 1) | -1.53 | active |
| KCNU1 (potassium calcium-activated channel subfamily U member 1) | -0.65 | inactive |
| KCNU1 (potassium calcium-activated channel subfamily U member 1) | 0.08 | inactive |
| KCNU1 (potassium calcium-activated channel subfamily U member 1) | -0.4 | inactive |
| TMEM184A (transmembrane protein 184A) | 0.29 | inactive |
| TMEM184A (transmembrane protein 184A) | 1.36 | inactive |
| TMEM184A (transmembrane protein 184A) | 1.2 | inactive |
| TMEM184A (transmembrane protein 184A) | -0.32 | inactive |
| SPART (spartin) | 4.38 | active |
| SPART (spartin) | 2.48 | inactive |
| SPART (spartin) | -0.34 | inactive |
| SPART (spartin) | 3.18 | active |
| GCKR (glucokinase regulator) | -0.66 | inactive |
| GCKR (glucokinase regulator) | -1.37 | inactive |
| GCKR (glucokinase regulator) | -0.98 | inactive |
| GCKR (glucokinase regulator) | -0.57 | inactive |
| ECI1 (enoyl-CoA delta isomerase 1) | -1.05 | inactive |
| ECI1 (enoyl-CoA delta isomerase 1) | -0.23 | inactive |
| ECI1 (enoyl-CoA delta isomerase 1) | -1.12 | inactive |
| ECI1 (enoyl-CoA delta isomerase 1) | 0.07 | inactive |
| ABCA7 (ATP binding cassette subfamily A member 7) | 1.23 | inactive |
| ABCA7 (ATP binding cassette subfamily A member 7) | 1.24 | inactive |
| ABCA7 (ATP binding cassette subfamily A member 7) | 1.05 | inactive |
| ABCA7 (ATP binding cassette subfamily A member 7) | 1.14 | inactive |
| RNASE13 (ribonuclease A family member 13 (inactive)) | -1.27 | inactive |
| RNASE13 (ribonuclease A family member 13 (inactive)) | -1.09 | inactive |
| RNASE13 (ribonuclease A family member 13 (inactive)) | -1.01 | inactive |
| RNASE13 (ribonuclease A family member 13 (inactive)) | -1.13 | inactive |
| KIR3DS1 | 2.87 | active |
| KIR3DS1 | 1.08 | inactive |
| KIR3DS1 | 2.85 | active |
| KIR3DS1 | 1.29 | inactive |
